Measured values from PubChem BioAssay AID2685 (National Center for Advancing Translational Sciences (NCATS), 2010).
Hit rate of the full screen: of about 320,000 compounds, about 2,100 (0.66%) were called active. Inconclusive means that the source gave no clear call. Such entries were picked first, then a sample of the others. The call rests on the fitted dose curve; in most records, active means well fitted inhibition curve with a large enough effect in the signal ratio, with a control signal flat (not every such curve was filed as active); inconclusive means small, poorly fitted or top-dose-only effect, or effect the other way, or a change in a side signal; inactive means flat fitted curve, though single readings scatter; the % refers to the signal ratio. Potencies of inconclusive entries are doubtful fits and often do not repeat.

Experiment: qHTS Assay for Lipid Storage Modulators in Drosophila S3 Cells
Settings: BODIPY lipid droplet fluorescence, 18-24 h, cells fed with added oleic acid; lipid storage change, negative = inhibition: at 46.1 µM (top of the series) unless noted
Method in brief: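 Drosophila S3 cells loaded with oleic acid (400 uM, as added) and compounds at several concentrations; lipid droplets imaged by 488-nm laser-scanning cytometry, 500–530 nm intensity and object ratio to cell channel. Percent activity normalized to 20 uM Triacsin C.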
On the % scale 0 is the no-effect control and ±100 the full control effect; potency means the concentration at half of the fitted maximal effect.

SMILES	Potency	lipid storage change, negative = inhibition
C=CCn1c(=O)c(C(=O)Nc2ccccc2C)c(O)c2ccccc21	active: 18.4 µM	–
COc1ccc(NC(=O)C(c2ccc(C)cc2)N(C)C(=O)CNC(C)=O)cc1 (stereo not drawn)	inconclusive: 29.1 µM [activator, single point]	–
Cc1cccc(NC(=O)/C(C#N)=C/c2ccccc2Cl)n1	inconclusive: 4.61 µM [falling, partial curve]	–
CCC(C)NC(=O)C1CCN(S(=O)(=O)c2ccc3c(c2)CC(C)N3C(C)=O)CC1 (stereo not drawn)	–	inconclusive: -20.3%
c1ccc(C2c3[nH]c4ccccc4c3CCN2Cc2cccn2-c2cccnc2)nc1 (stereo not drawn)	–	inconclusive: 8.69%
CCC1=NN2C(=N)/C(=C\c3cccn3-c3cccc(Cl)c3)C(=O)N=C2S1	–	inconclusive: -44.1%
COc1ccc(C(C(=O)NC2CCCC2)N(Cc2ccccc2)C(=O)c2nsc(Cl)c2Cl)cc1 (stereo not drawn)	–	inconclusive: -5.56%
O=C(Nc1ccc(S(=O)(=O)N2CCCCC2)cc1)c1ccccc1Cl	–	inconclusive: -3.27%
O=C(CN1CCN(S(=O)(=O)N2CCOCC2)CC1)Nc1cc(Cl)cc(Cl)c1	–	inactive
CC(=O)N1CCN(CC(O)COc2ccc(OCc3ccccc3)cc2)CC1 (stereo not drawn)	–	inconclusive: 47.4%
Cc1[nH]c(=O)[nH]c(=O)c1/C=N\NC(=O)CCc1ccc(OC(C)C)cc1	–	inconclusive: 10%
CCCCOc1ccc(C(=O)NCC(=O)N2CCN(C(=O)c3ccco3)CC2)cc1	–	inconclusive: 9.21%
O=C(COc1ccccc1)NC1CCS(=O)(=O)C1 (stereo not drawn)	–	inconclusive: -23%
CCCCN(Cc1ccccc1)C(=O)c1cnc2n(c1=O)CCS2	–	inconclusive: 13.8%
CCCCN(CC)CCCNC(=O)c1ccc(CS(=O)(=O)c2ccccc2C)o1	–	inconclusive: 46%
CC(C)CCn1nnnc1C(c1ccccc1F)N1CCC(C(N)=O)CC1 (stereo not drawn)	inconclusive: 29.1 µM [falling, single point]	–
Cc1ccc(-n2c(NN)nc3ccccc3c2=O)c(C)c1	inconclusive: 2.06 µM [activator, partial curve]	–
COc1ccccc1OCC(=O)Nc1ccccc1C(=O)N1CCCCC1	–	inactive
Cc1ccc([N+](=O)[O-])cc1Nc1nc(N2CCCC2)nc(N2CCCC2)n1	–	inconclusive: 18.6%
CN(Cc1cnccn1)C(=O)CC1C(=O)NCCN1Cc1c(F)cccc1Cl (stereo not drawn)	–	inconclusive: -4.82%
CCN(c1cccc(C)c1)S(=O)(=O)c1ccc2[nH]c(=O)c(=O)[nH]c2c1	–	inconclusive: -1.37%
O=C(COC(=O)c1ccc2c(=O)n3c(nc2c1)CCC3)Nc1ccc(OC(F)F)cc1	–	inconclusive: 6.04%
COc1ccc(Cc2nc3ccc(C(=O)N(C)Cc4cc(C)[nH]n4)cc3o2)cc1OC	–	inconclusive: -47.8%
COc1cc(/C=N/NC(=O)CSc2nc3ccccc3n2C)cc(OC)c1OC	–	inconclusive: 10.1%
O=[N+]([O-])c1ccc2cn(-c3ccccc3)nc2c1	–	inconclusive: -7.22%
CCOc1ccc(NC(=O)CN(C)C(=O)c2csc3c2CCCC3)cc1OCC	–	inconclusive: -2.68%

SMILES	Potency	lipid storage change, negative = inhibition
COC(=O)C1(C(F)(F)F)N=C(C(F)(F)F)Nc2ccc(Cl)cc21 (stereo not drawn)	–	inactive
COC(=O)c1ccc(-n2nnnc2SCC(=O)NCc2cccc(C(=O)O)c2)cc1	inconclusive: 29.1 µM [falling, single point]	–
COc1ccc(-c2cc(C(F)(F)F)n3nc(C(=O)O)cc3n2)cc1OC	–	inconclusive: 61.6%
Cc1cc(-c2ccc(C)c(S(=O)(=O)NCCCN3CCN(c4ccccc4F)CC3)c2)on1	–	inconclusive: -37.9%
C=CCSc1nnc(-c2cccnc2)o1	–	inconclusive: 21.4%
CN(C)S(=O)(=O)c1ccc(NC(=O)C2COc3ccccc3O2)cc1 (stereo not drawn)	–	inconclusive: -17%
O=C(COC(=O)Cn1cc(C(F)(F)F)ccc1=O)NCc1ccccc1	–	inconclusive
COc1cccc(CNC(=O)c2ccc(NC(=O)C3=CSCCO3)cc2)c1	inconclusive: 8.2 µM [activator, partial curve, poor fit]	–
CCn1c(O)c(N=NC(=O)Cn2ccc(C(F)(F)F)n2)c2ccccc21	inconclusive: 14.6 µM [activator, partial curve, poor fit]	–
CCc1ccc(NC(=S)NC2CCN(Cc3ccccc3)CC2)cc1	–	inconclusive: -29.6%
O=C(Cc1c(F)cccc1Cl)NNC(=S)Nc1ccc(S(=O)(=O)Nc2ncccn2)cc1	–	inconclusive: -30.1% [at 0.00295 µM]
Cc1ccc(-n2c(C)nc3c(cnn3-c3ccc(F)cc3)c2=O)cc1	inconclusive: 23.1 µM [falling, single point]	–
Cc1ccc2c(CC(=O)Nc3nc(C)cs3)coc2c1	–	inconclusive: -14%
c1csc(CNc2nc3ccccc3n2CCN2CCOCC2)c1	inconclusive: 29.1 µM [falling, partial curve, poor fit]	–
COC(=O)c1cc(NC(=S)N2CCN(C(=O)C3CCCO3)CC2)cc(C(=O)OC)c1 (stereo not drawn)	inconclusive: 0.651 µM [falling, full curve, poor fit]	–
C=CCn1c(SCC(=O)N2CCOCC2)nc2ccccc2c1=O	inconclusive: 20.6 µM [activator, single point]	–
NC(=O)c1cc(Cc2ccccc2)sc1NC(=O)c1ccco1	inconclusive: 2.06 µM [rising, partial curve]	–
COc1ccccc1-c1cc2nc(C)c(CCC(=O)NCc3ccco3)c(C)n2n1	inconclusive: 4.11 µM [rising, full curve]	–
CS(=O)(=O)NN1C(=O)c2ccccc2NC1c1c[nH]c2ccccc12 (stereo not drawn)	–	inactive
COc1cccc2cc(C(=O)N3CCN(c4ccc(C)cc4C)CC3)c(=O)oc12	–	inactive
CCN(CCO)c1ncnc2c1sc1nc(C(C)C)c3c(c12)CC(C)(C)OC3	–	inconclusive: 18.5%
CCCCOc1ccc(CNC(=O)NS(=O)(=O)c2ccc(OCC)cc2)cc1	–	inconclusive: -148%
Fc1ccc(-c2c[nH]c(=S)n2Cc2ccccc2)cc1	–	inconclusive: -7.09%
O=C1C2C(C(=O)N1/N=C/c1ccc([N+](=O)[O-])o1)C1C=CC2C12CC2 (stereo not drawn)	inconclusive: 20.6 µM [falling, partial curve, poor fit]	–
O=S(=O)(NCc1cc(-c2ccccc2)no1)c1ccccc1	–	inconclusive: 11.6%
CCOc1ccc(-c2nnn(CC(=O)NCc3ccc(F)cc3)n2)cc1OCC	inconclusive: 6.51 µM [activator, single point]	–

Taken from above.
O=C(CN1CCN(S(=O)(=O)N2CCOCC2)CC1)Nc1cc(Cl)cc(Cl)c1 | lipid storage change, negative = inhibition: inactive
C=CCn1c(SCC(=O)N2CCOCC2)nc2ccccc2c1=O | Potency: inconclusive: 20.6 µM [activator, single point]
c1csc(CNc2nc3ccccc3n2CCN2CCOCC2)c1 | Potency: inconclusive: 29.1 µM [falling, partial curve, poor fit]
COc1ccc(NC(=O)C(c2ccc(C)cc2)N(C)C(=O)CNC(C)=O)cc1 (stereo not drawn) | Potency: inconclusive: 29.1 µM [activator, single point]

Additional compounds follow:

SMILES	Potency	lipid storage change, negative = inhibition
CN(C)C(=O)c1nnc(Cc2ccc(Cl)cc2)o1	–	inconclusive: 1.67%
COc1ccc(-c2nc(/C=C3\C(C)=Nc4ccccc43)c(O)o2)cc1	–	inactive
CCN1C(=O)C(=O)N(CC(=O)Nc2cc(C)ccc2C)C1=O	–	inconclusive: 69.1%
COCc1cc(/C=N\NC(=O)COc2ccccc2)ccc1OC	–	inconclusive: 18.8%
COc1cccc(/C=N/NC(=O)C(=O)N2CCCCCC2)c1OC	inconclusive: 13 µM [activator, partial curve, poor fit]	–
Cc1ccccc1NC(=O)c1snc2c(=O)[nH]cnc12	–	inconclusive: 8.9%
Cc1cc(C)cc(NC(=O)Nc2cc(S(=O)(=O)N(C)C)ccc2C)c1	–	inconclusive: -30.7%
CC(C)CC(=O)NC(=S)Nc1ccc(N2CCOCC2)cc1	–	inconclusive: -5.21%
COc1ccc(-c2[nH]ncc2CN(C)CC2CCCCO2)cc1F (stereo not drawn)	–	inconclusive: 3.8%
COc1cccc(C(=O)NC(=S)Nc2ccc(N(C)C)cc2)c1	–	inconclusive: 23.4%
CON(C)c1nc(NCC(C)C)nc(OCC#N)n1	–	inconclusive: 12.8%
Cc1cc(NC(=O)C(C)N2C(=O)c3ccccc3S2(=O)=O)no1 (stereo not drawn)	–	inconclusive: 31.1%
CCOC(=O)CSc1nnc(-c2cccc(Cl)c2)n1CC	–	inconclusive: 58.2%
CCC(=O)Nc1cc(-c2nn3c(C)nnc3s2)ccc1C	inconclusive: 0.0326 µM [activator, full curve]	–
CCn1c(SCC(=O)NCc2ccco2)nnc1C1CCCC1	inconclusive: 29.1 µM [activator, single point]	–
CCOC(=O)C1CCN(Cc2ccc(F)c(Br)c2)CC1	inconclusive: 2.06 µM [activator, partial curve]	–
Cc1ccc(-c2nnc(NC(=O)c3ccco3)s2)cc1	inconclusive: 20.6 µM [activator, partial curve]	–
CCCn1cc(S(=O)(=O)c2ccccc2)c(=O)c2cc(OCC)ccc21	–	inconclusive: -28.9%
Cc1ccc2c(c1)c1ncn(CCC3=CCCCC3)c(=O)c1n2C	inconclusive: 8.2 µM [activator, partial curve, poor fit]	–
O=C(CN1CCOCC1)OCCCc1ccccc1	inconclusive: 29.1 µM [falling, single point]	–
COc1cc(-c2nnc(SC(C)C(=O)Nc3c(C)n(C)n(-c4ccccc4)c3=O)o2)cc(OC)c1OC (stereo not drawn)	active: 25.9 µM	–
CCc1nc(C)ccc1OC(=O)C12CC3CC(CC(C3)C1)C2	–	inconclusive: -21.8%
Cc1cc(/C=C2/C(=N)N3C(=NC2=O)SN=C3S(C)(=O)=O)c(C)n1-c1ccccc1	–	inconclusive: -7.12%
COc1ccc(OC2CCN(S(=O)(=O)c3ccc(OC)c(OC)c3)CC2)cc1	–	inconclusive: 10.5%
O=C(CC1Oc2ccccc2NC1=O)NC1CC1 (stereo not drawn)	–	inconclusive: -4.53%
COc1ccccc1NC(=O)/C=C/c1ccc2c(c1)OCO2	inconclusive: 0.461 µM [falling, single point]	–
